Results on 1 sequence are retold here after doi:10.1101/2020.05.04.076190.

By UniProt entry, the sequences of proteins in these tests, tags left out. Where a name states a change or a piece, a line headed by the entry shows the natural chain unless it says otherwise.
UniProt P61244: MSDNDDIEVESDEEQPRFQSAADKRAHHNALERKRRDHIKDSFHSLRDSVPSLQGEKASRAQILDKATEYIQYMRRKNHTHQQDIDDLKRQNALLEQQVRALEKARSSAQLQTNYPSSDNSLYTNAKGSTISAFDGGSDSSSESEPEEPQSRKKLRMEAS

This data set deals with Max bHLH-LZ (p21 isoform) (UniProt P61244). Kind of data set: EMSA. To be noted: Max only at 2 uM, 6-fold excess unlabeled non-specific competitor. For orientation: A gel shift assay detects complexes by their altered migration in electrophoresis.

For at least one entry, the source does not settle the construct or the ends of the probe. At least one verdict was read from the data and is not stated in words by the source.

“GCGCGGGCACGTGGGCCGGGG (double strand) [CACGTG E-box probe]”: the binding result is recorded as “binds”.
